# Read-outs that look alike come from different tables or passages of the source.
# Experiment: general procedure: solution-phase peptide synthesis; pentafluorophenol (PFP) / DIC, DIPEA
substance,measurement,setting,value
"(4S)-4-({2-[(1R,3R)-3-[(2S,3S)—N-hexyl-3-methyl-2-{[(2R)-2-methylpyrrolidin-2-yl]formamido}pentanamido]-4-methyl-1-[(methylcarbamoyl)oxy]pentyl]-1,3-thiazol-4-yl}formamido)-5-(4-hydroxyphenyl)-2,2-dimethylpentanoic Acid",final HPLC purity,,>99%
same,step yield,"coupling step, from 3Ed",22%
"(4S)-4-Amino-5-{4-[(2S)-5-(carbamoylamino)-2-[(2S)-2-[(2S)-4-carboxy-2-{[(9H-fluoren-9-ylmethoxy)carbonyl]amino}butanamido]-3-methylbutanamido]pentanamido]phenyl}-2,2-dimethylpentanoic acid",step yield,"coupling step, from L1-1a",48% yield
"(4S)-5-(4-amino-3-fluorophenyl)-4-({2-[(1R,3R)-1-ethoxy-3-[(2S,3S)—N-hexyl-3-methyl-2-{[(2R)-1-methylpiperidin-2-yl]formamido}pentanamido]-4-methylpentyl]-1,3-thiazol-4-yl}formamido)-2,2-dimethylpentanoic Acid",final HPLC purity,coupling step,>99%
same,step yield,coupling step,70%
"(4S)-5-(4-amino-3-fluorophenyl)-4-({2-[(1R,3R)-1-ethoxy-3-[(2S,3S)—N-hexyl-3-methyl-2-{[(2R,4R)-4-methylpiperidin-2-yl]formamido}pentanamido]-4-methylpentyl]-1,3-thiazol-4-yl}formamido)-2,2-dimethylpentanoic Acid",final HPLC purity,,99%
same,step yield,"coupling step, from 3Bc",26%
"(4S)-5-(4-amino-3-fluorophenyl)-4-({2-[(1R,3R)-1-{[(2-aminoethyl)carbamoyl]oxy}-3-[(2S,3S)—N-hexyl-3-methyl-2-{[(2R)-1-methylpiperidin-2-yl]formamido}pentanamido]-4-methylpentyl]-1,3-thiazol-4-yl}formamido)-2,2-dimethylpentanoic Acid",final HPLC purity,coupling step,>99%
same,step yield,"coupling step, from 3Eb",19%
"(4S)-5-(4-amino-3-fluorophenyl)-4-({2-[(1R,3R)-3-[(2S,3S)—N-hexyl-3-methyl-2-{[(2R)-1-methylpiperidin-2-yl]formamido}pentanamido]-1-hydroxy-4-methylpentyl]-1,3-thiazol-4-yl}formamido)-2,2-dimethylpentanoic Acid",final HPLC purity,late stage modification step,>99%
same,step yield,"late stage modification step, from P2",90%
"(4S)-5-(4-aminophenyl)-4-({2-[(1R,3R)-1-acetamido-3-[(2S,3S)—N-hexyl-3-methyl-2-{[(2R)-1-methylpiperidin-2-yl]formamido}pentanamido]-4-methylpentyl]-1,3-thiazol-4-yl}formamido)-2,2-dimethylpentanoic Acid",final HPLC purity,coupling step,>99%
same,step yield,"coupling step, from compound 3C",12%
"(4S)-5-(4-aminophenyl)-4-({2-[(1R,3R)-1-ethoxy-3-[(2S,3S)—N-hexyl-3-methyl-2-[(2R)-piperidin-2-ylformamido]pentanamido]-4-methylpentyl]-1,3-thiazol-4-yl}formamido)-2,2-dimethylpentanoic Acid",final HPLC purity,,>99%
same,step yield,"coupling step, from 3Bb",22%
"(4S)-5-(4-aminophenyl)-4-({2-[(1R,3R)-1-ethoxy-3-[(2S,3S)—N-hexyl-3-methyl-2-{[(2R,4R)-4-methylpiperidin-2-yl]formamido}pentanamido]-4-methylpentyl]-1,3-thiazol-4-yl}formamido)-2,2-dimethylpentanoic Acid",final HPLC purity,,99%
same,step yield,coupling step,29%
"(4S)-5-(4-aminophenyl)-4-({2-[(1R,3R)-1-hydroxy-4-methyl-3-[(2S,3S)-3-methyl-2-{[(2R)-1-methylpiperidin-2-yl]formamido}-N-(pent-4-yn-1-yloxy)pentanamido]pentyl]-1,3-thiazol-4-yl}formamido)-2,2-dimethylpentanoic Acid",final HPLC purity,late stage modification step,>99%
same,step yield,late stage modification step,90%
"(4S)-5-(4-aminophenyl)-4-({2-[(1R,3R)-3-[(2S,3S)—N-hexyl-3-methyl-2-{[(2R)-1-methylpiperidin-2-yl]formamido}pentanamido]-1-hydroxy-4-methylpentyl]-1,3-thiazol-4-yl}formamido)-2,2-dimethylpentanoic Acid",final HPLC purity,coupling step,99%
same,step yield,"coupling step, from 2Aa",47%
"(4S)-5-[4-(2-aminoacetamido)-3-fluorophenyl]-4-({2-[(1R,3R)-1-ethoxy-3-[(2S,3S)—N-hexyl-3-methyl-2-{[(2R)-1-methylpiperidin-2-yl]formamido}pentanamido]-4-methylpentyl]-1,3-thiazol-4-yl}formamido)-2,2-dimethylpentanoic Acid",final HPLC purity,coupling step,99%
same,step yield,"coupling step, from 3Ba",13%
"(4S)-5-[4-(2-aminoacetamido)-3-fluorophenyl]-4-({2-[(1R,3R)-3-[(2S,3S)—N-hexyl-3-methyl-2-{[(2R)-1-methylpiperidin-2-yl]formamido}pentanamido]-1-hydroxy-4-methylpentyl]-1,3-thiazol-4-yl}formamido)-2,2-dimethylpentanoic Acid",final HPLC purity,coupling step,95%
same,step yield,"coupling step, from 3 Da",15%
"(4S)-5-[4-(2-aminoacetamido)phenyl]-4-({2-[(1R,3R)-1-ethoxy-3-[(2S,3S)—N-hexyl-3-methyl-2-[(2R)-piperidin-2-ylformamido]pentanamido]-4-methylpentyl]-1,3-thiazol-4-yl}formamido)-2,2-dimethylpentanoic Acid",final HPLC purity,coupling step,99%
same,step yield,"coupling step, from 3Bb, dual-TFA salt",18%
"(4S)-5-[4-(2-aminoacetamido)phenyl]-4-({2-[(1R,3R)-1-ethoxy-3-[(2S,3S)—N-hexyl-3-methyl-2-{[(2R)-1-methylpiperidin-2-yl]formamido}pentanamido]-4-methylpentyl]-1,3-thiazol-4-yl}formamido)-2,2-dimethylpentanoic Acid",final HPLC purity,coupling step,99%
same,step yield,coupling step,11%
BCN-PEG4-Evc-P34,conjugation yield,conjugation step,22% yield
same,purity (crude or final not stated),conjugation step,99%
DIBAC-PEG4-EvcPAB-Gly-P8,purity (crude or final not stated),,99.9%
same,step yield,late stage modification step,14% yield
NH2-PEG4-Evc-P34,final HPLC purity,conjugation step,99%
same,conjugation yield,"conjugation step, from L1-3b",33% yield

# Reference: patent publication US20230069722A1 (priority 2020, published 2023)
